Source: PubChem BioAssay AID256 (DTP/NCI, 2004)
The list is a part of this screen's results and no random one: it gathers tests that were run many times, whatever their T/C, doses with no T/C, and many T/C values between a quarter and a half above the control. Further doses and runs are listed elsewhere. T/C: endpoint of the treated group in % of that of the vehicle group. Some entries give survivors of the animals treated and no T/C: the source holds a T/C of zero for them, seemingly a mark for toxic or unscored doses. Some survivor counts are full or nearly so, which does not show that the dose was tolerated: survival well below the control is almost never listed, so the zero probably covers shortened survival too. Counts of survivors are from the toxicity check (mostly the fifth day) where no day follows; animals may have died later. Schedule codes are those of the source, taken here to give the interval after Q, in days (D) or hours (H), and the number of doses after X. For survival time, the PubChem record calls one and a half times the control and up active, and a quarter to a half above the control has no call in these data; cut-offs in other NCI protocols can differ.

System: CD2F1 mice, L1210 leukemia ip, survival T/C
Experiment: NCI In Vivo Anticancer Drug Screen. Data for tumor model L1210 Leukemia (intraperitoneal) in CD2F1 (CDF1) mice
Details: higher T/C = longer survival
Method in brief: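 In this screen, transplantable tumors were grown in mice given either the compound or its vehicle. Results were expressed as the treated measurement relative to the control measurement.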

[1] = T/C endpoint: mean survival time, dose: 100.0 mg/kg/injection, schedule: Q01DX001 (ip), vehicle: saline with Tween-80
[2] = T/C endpoint: mean survival time, dose: 200.0 mg/kg/injection, schedule: Q01DX001 (ip), vehicle: saline with Tween-80
[3] = T/C endpoint: mean survival time, dose: 400.0 mg/kg/injection, schedule: Q01DX001 (ip), vehicle: saline with Tween-80
[4] = T/C endpoint: mean survival time, dose: 200.0 mg/kg/injection, schedule: Q01DX009 (ip), vehicle: saline with Tween-80
[5] = T/C endpoint: mean survival time, dose: 400.0 mg/kg/injection, schedule: Q04DX003 (ip), vehicle: saline with Tween-80
[6] = T/C endpoint: mean survival time, dose: 50.0 mg/kg/injection, schedule: Q01DX009 (ip), vehicle: other
[7] = T/C endpoint: mean survival time, dose: 400.0 mg/kg/injection, schedule: Q01DX009 (ip), vehicle: saline with Tween-80

CCC(C)C1NC(=O)C(NC(=O)c2c3nc4c(C(=O)NC5C(=O)NC(C(C)CC)C(=O)N6CCCC6C(=O)N(C)CC(=O)N(C)C(C(C)C)C(=O)OC5C)ccc(C)c4oc-3c(C)c(=O)c2N)C(C)OC(=O)C(C(C)C)N(C)C(=O)CN(C)C(=O)C2CCCN2C1=O (stereo not drawn)
T/C (T/C endpoint: mean survival time, dose: 1.0 mg/kg/injection, schedule: Q01DX001 (ip), vehicle: saline): 132 % of control
T/C (T/C endpoint: mean survival time, dose: 2.0 mg/kg/injection, schedule: Q01DX001 (ip), vehicle: saline): 138 % of control

C=CC1=NC(C)(C)CC(C)O1 (stereo not drawn)
survivor count (T/C endpoint: mean survival time, dose: 12.5 mg/kg/injection, schedule: Q01DX009 (ip), vehicle: water): 4 of 6
survivor count (T/C endpoint: mean survival time, dose: 25.0 mg/kg/injection, schedule: Q01DX009 (ip), vehicle: water): 0 of 6
survivor count (T/C endpoint: mean survival time, dose: 50.0 mg/kg/injection, schedule: Q01DX009 (ip), vehicle: water): 0 of 6
survivor count (T/C endpoint: mean survival time, dose: 100.0 mg/kg/injection, schedule: Q01DX009 (ip), vehicle: water): 0 of 6
survivor count (T/C endpoint: mean survival time, dose: 200.0 mg/kg/injection, schedule: Q01DX009 (ip), vehicle: water): 0 of 6

C(#Cc1ccccc1)C[P+](c1ccccc1)(c1ccccc1)c1ccccc1
survivor count (T/C endpoint: mean survival time, dose: 10.0 mg/kg/injection, schedule: Q01DX009 (ip), vehicle: saline with Tween-80): 2 of 6
survivor count (T/C endpoint: mean survival time, dose: 20.0 mg/kg/injection, schedule: Q01DX009 (ip), vehicle: saline with Tween-80): 2 of 6
survivor count [1]: 0 of 6
survivor count [2]: 0 of 6
survivor count [3]: 0 of 6

CCCc1ccc(OC)cc1
survivor count [4]: 3 of 6
survivor count [5]: 4 of 6

NC(=O)C1=C(CCCCl)c2ccccc2C1=O
survivor count (T/C endpoint: mean survival time, dose: 400.0 mg/kg/injection, schedule: Q01DX001 (ip), vehicle: saline): 0 of 6

c1ccc2ncccc2c1
survivor count (T/C endpoint: mean survival time, dose: 400.0 mg/kg/injection, schedule: Q01DX009 (ip), vehicle: other): 0 of 6

O=C/C=C/C=O
survivor count (T/C endpoint: mean survival time, dose: 25.0 mg/kg/injection, schedule: Q01DX001 (ip), vehicle: saline with Tween-80): 0 of 3

Nc1ccccc1SSc1ccccc1N
survivor count [5]: 0 of 6

O=C(/C=C/c1ccccn1)c1ccccc1
survivor count (T/C endpoint: mean survival time, dose: 400.0 mg/kg/injection, schedule: Q04DX002 (ip), vehicle: Klucel (hydroxypropylcellulose) (HPC)): 1 of 3

C/C=C\c1ccc(OCCOC(=O)Nc2cc(Cl)c(OC)cc2OC)c(OC)c1
survivor count [4]: 3 of 3

c1ccc2c(CN3CC3)c[nH]c2c1
T/C [6]: 137 % of control
survivor count [6]: 5 of 6
survivor count (T/C endpoint: mean survival time, dose: 75.0 mg/kg/injection, schedule: Q01DX009 (ip), vehicle: other): 3 of 6
survivor count (T/C endpoint: mean survival time, dose: 100.0 mg/kg/injection, schedule: Q01DX009 (ip), vehicle: other): 1 of 6
survivor count [7]: 2 of 6

COc1cc(OC)c(NC(=O)NCc2ccco2)cc1Cl
survivor count (T/C endpoint: mean survival time, dose: 100.0 mg/kg/injection, schedule: Q01DX009 (ip), vehicle: saline with Tween-80): 3 of 3

O=NN(CCCl)C(=O)NC1C(O)C(O)C(O)C(O)C1O (stereo not drawn)
T/C (T/C endpoint: mean survival time, dose: 9.0 mg/kg/injection, schedule: Q01DX001 (ip), vehicle: saline): 131 % of control
T/C (T/C endpoint: mean survival time, dose: 16.5 mg/kg/injection, schedule: Q01DX001 (ip), vehicle: saline): 143 % of control
T/C (T/C endpoint: mean survival time, dose: 67.0 mg/kg/injection, schedule: Q01DX001 (ip), vehicle: saline): 128 % of control
survivor count (T/C endpoint: mean survival time, dose: 100.0 mg/kg/injection, schedule: Q01DX001 (ip), vehicle: saline): 10 of 10
survivor count (T/C endpoint: mean survival time, dose: 150.0 mg/kg/injection, schedule: Q01DX001 (ip), vehicle: saline): 9 of 10

O=C(O)c1cc(CBr)cc(CBr)c1
survivor count [1]: 0 of 6
survivor count [2]: 0 of 6
survivor count [3]: 0 of 6

CC1(O)CC23CC(O)C4(O)C(CC(O)C4(C)C)C(C)(O)C2CCC1C3O (stereo not drawn)
survivor count (T/C endpoint: median survival time, dose: 1.0 mg/kg/injection, schedule: Q01DX009 (ip), vehicle: Klucel (hydroxypropylcellulose) (HPC)): 1 of 10

C=CCOCC(O)C[As](=O)(O)c1cccc(Cl)c1 (stereo not drawn)
survivor count (T/C endpoint: mean survival time, dose: 25.0 mg/kg/injection, schedule: Q04DX003 (ip), vehicle: saline with Tween-80): 6 of 6

Nc1nc(N)c2nc3c4ccccc4c4ccccc4c3nc2n1
survivor count [4]: 2 of 6
survivor count [7]: 3 of 6
